{"source": "PubChem BioAssay AID1259275 (Sanger Institute, 2017)", "screen": "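Knock-downs that cut viability on their own or combined with BYL719, cetuximab or trametinib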 (primary screen)", "cells": "COLO320HSR human colorectal cancer cells", "knock-down reagent": "siRNA pool against human genes", "treatment": "anchor drug added one day after transfection: BYL719 at 1 µM, cetuximab at 5 µg/ml or trametinib at 10 nM; DMSO as vehicle arm", "measurement": "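Replicate-mean viability versus non-targeting pool control, robust z-score without drug, and per-drug synergy scores for BYL719 at 1 µM, cetuximab at 5 µg/ml and trametinib at 10 nM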", "direction": "robust z-score, siRNA alone: higher = more viable cells; strongly negative means essential", "hit rule": "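Essential means the knock-down by itself gives a robust z-score lower than -3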", "calls": "active = essential (siRNA alone); inactive = no change (siRNA alone)", "note": "Here is one part, drawn at random, of 794 reagents. 13 of them (1.6%) were called active. 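Calls mark knock-downs lethal by themselves, not drug synergy; drugs went in a day after transfection, with DMSO as vehicle.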 Reagents against one gene are numbered here. Further read-outs or replicates are left out here. Not stated in the record: the amount of reagent, the time to read-out."}
{"Gene": "GSK3B (glycogen synthase kinase 3 beta)", "reagent": 1, "robust z-score, siRNA alone": -0.765, "outcome": "inactive"}
{"Gene": "IRAK4 (interleukin 1 receptor associated kinase 4)", "reagent": 1, "robust z-score, siRNA alone": 0.726, "outcome": "inactive"}
{"Gene": "CDK18 (cyclin dependent kinase 18)", "reagent": 1, "robust z-score, siRNA alone": -1.8, "outcome": "inactive"}
{"Gene": "MAPK6 (mitogen-activated protein kinase 6)", "reagent": 1, "robust z-score, siRNA alone": -0.282, "outcome": "inactive"}
{"Gene": "MAK (male germ cell associated kinase)", "reagent": 1, "robust z-score, siRNA alone": 0.726, "outcome": "inactive"}
{"Gene": "BRD2 (bromodomain containing 2)", "reagent": 1, "robust z-score, siRNA alone": 0.726, "outcome": "inactive"}
{"Gene": "CDK20 (cyclin dependent kinase 20)", "reagent": 1, "robust z-score, siRNA alone": 0.726, "outcome": "inactive"}
{"Gene": "PRPS1 (phosphoribosyl pyrophosphate synthetase 1)", "reagent": 1, "robust z-score, siRNA alone": 0.316, "outcome": "inactive"}
{"Gene": "CERK (ceramide kinase)", "reagent": 1, "robust z-score, siRNA alone": 0.726, "outcome": "inactive"}
{"Gene": "CAMK2N1 (calcium/calmodulin dependent protein kinase II inhibitor 1)", "reagent": 1, "robust z-score, siRNA alone": -1.26, "outcome": "inactive"}
{"Gene": "STK16 (serine/threonine kinase 16)", "reagent": 1, "robust z-score, siRNA alone": 0.726, "outcome": "inactive"}
{"Gene": "PRKACG (protein kinase cAMP-activated catalytic subunit gamma)", "reagent": 1, "robust z-score, siRNA alone": -0.933, "outcome": "inactive"}
{"Gene": "MYLK3 (myosin light chain kinase 3)", "reagent": 1, "robust z-score, siRNA alone": -0.527, "outcome": "inactive"}
{"Gene": "CHEK1 (checkpoint kinase 1)", "reagent": 1, "robust z-score, siRNA alone": -2.37, "outcome": "inactive"}
{"Gene": "AK7 (adenylate kinase 7)", "reagent": 1, "robust z-score, siRNA alone": -0.0463, "outcome": "inactive"}
{"Gene": "BMPR2 (bone morphogenetic protein receptor type 2)", "reagent": 1, "robust z-score, siRNA alone": -0.963, "outcome": "inactive"}
{"Gene": "ILK (integrin linked kinase)", "reagent": 1, "robust z-score, siRNA alone": 0.514, "outcome": "inactive"}
{"Gene": "ILK (integrin linked kinase)", "reagent": 2, "robust z-score, siRNA alone": 0.726, "outcome": "inactive"}
{"Gene": "AK1 (adenylate kinase 1)", "reagent": 1, "robust z-score, siRNA alone": 0.167, "outcome": "inactive"}
